These are yes or no findings as the source states them, for the method shown. Binding seen in cells or lysates may run through a third protein. Some entries that bind do so weakly or less than the wild type. Tags and fused reporters may be left off the sequences shown.
What was measured:
[1] = molecular target: T1, Ccl1 (Saccharomyces cerevisiae) (UniProt P37366); assay: anti-FLAG co-IP, LC-MS/MS
T1 sequence (looked up): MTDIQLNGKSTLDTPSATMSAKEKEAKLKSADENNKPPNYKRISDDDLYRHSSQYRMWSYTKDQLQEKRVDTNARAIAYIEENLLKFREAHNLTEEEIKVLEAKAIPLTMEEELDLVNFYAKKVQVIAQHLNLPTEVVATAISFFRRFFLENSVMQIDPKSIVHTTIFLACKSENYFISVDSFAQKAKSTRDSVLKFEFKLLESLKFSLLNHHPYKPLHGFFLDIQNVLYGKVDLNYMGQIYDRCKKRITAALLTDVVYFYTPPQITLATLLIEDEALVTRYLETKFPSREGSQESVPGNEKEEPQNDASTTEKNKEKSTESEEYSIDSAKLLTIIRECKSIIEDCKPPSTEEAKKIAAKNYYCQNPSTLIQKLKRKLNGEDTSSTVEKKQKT

[2] = molecular target: T2, Kin28 (Saccharomyces cerevisiae) (UniProt P06242); assay: anti-FLAG co-IP, LC-MS/MS
T2 sequence (looked up): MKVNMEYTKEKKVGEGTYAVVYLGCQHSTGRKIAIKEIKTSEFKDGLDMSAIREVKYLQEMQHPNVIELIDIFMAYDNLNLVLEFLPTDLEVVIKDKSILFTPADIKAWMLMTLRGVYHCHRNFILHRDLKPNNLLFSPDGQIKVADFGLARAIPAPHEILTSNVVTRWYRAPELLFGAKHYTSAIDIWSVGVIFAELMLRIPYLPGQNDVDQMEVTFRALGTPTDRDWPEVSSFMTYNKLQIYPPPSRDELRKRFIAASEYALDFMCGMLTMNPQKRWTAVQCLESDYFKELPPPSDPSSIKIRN

[3] = molecular target: T3, Met18/Mms19 (Saccharomyces cerevisiae) (UniProt P40469); assay: anti-FLAG co-IP, LC-MS/MS
T3 sequence (looked up): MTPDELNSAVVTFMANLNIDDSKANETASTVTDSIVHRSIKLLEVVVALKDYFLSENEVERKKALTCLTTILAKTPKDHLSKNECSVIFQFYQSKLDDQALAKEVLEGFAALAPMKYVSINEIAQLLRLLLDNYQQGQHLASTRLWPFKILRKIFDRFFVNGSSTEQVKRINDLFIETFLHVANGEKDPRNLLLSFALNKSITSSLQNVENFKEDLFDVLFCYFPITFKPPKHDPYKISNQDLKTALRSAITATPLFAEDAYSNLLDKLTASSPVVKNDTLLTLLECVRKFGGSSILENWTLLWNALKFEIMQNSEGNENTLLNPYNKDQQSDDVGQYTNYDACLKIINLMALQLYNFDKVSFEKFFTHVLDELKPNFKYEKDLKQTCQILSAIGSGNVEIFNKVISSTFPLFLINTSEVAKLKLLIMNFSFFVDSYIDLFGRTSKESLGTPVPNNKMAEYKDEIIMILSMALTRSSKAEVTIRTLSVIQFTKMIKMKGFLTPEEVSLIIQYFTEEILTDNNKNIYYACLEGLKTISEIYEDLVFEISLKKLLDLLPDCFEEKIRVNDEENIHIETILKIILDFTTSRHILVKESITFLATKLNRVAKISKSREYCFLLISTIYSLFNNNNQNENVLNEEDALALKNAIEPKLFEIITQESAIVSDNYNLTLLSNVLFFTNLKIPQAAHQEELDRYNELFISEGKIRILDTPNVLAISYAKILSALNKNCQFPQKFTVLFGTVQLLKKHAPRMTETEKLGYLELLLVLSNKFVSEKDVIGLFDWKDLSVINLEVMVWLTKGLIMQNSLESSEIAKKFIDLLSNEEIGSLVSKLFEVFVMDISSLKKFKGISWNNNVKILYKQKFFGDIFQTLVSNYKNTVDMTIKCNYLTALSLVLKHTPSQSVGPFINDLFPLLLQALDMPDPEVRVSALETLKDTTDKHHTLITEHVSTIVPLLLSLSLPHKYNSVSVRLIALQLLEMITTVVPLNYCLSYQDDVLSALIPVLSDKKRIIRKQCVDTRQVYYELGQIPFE

[4] = molecular target: T4, TFB3 (Saccharomyces cerevisiae) (UniProt Q03290); assay: anti-FLAG co-IP, LC-MS/MS
T4 sequence (looked up): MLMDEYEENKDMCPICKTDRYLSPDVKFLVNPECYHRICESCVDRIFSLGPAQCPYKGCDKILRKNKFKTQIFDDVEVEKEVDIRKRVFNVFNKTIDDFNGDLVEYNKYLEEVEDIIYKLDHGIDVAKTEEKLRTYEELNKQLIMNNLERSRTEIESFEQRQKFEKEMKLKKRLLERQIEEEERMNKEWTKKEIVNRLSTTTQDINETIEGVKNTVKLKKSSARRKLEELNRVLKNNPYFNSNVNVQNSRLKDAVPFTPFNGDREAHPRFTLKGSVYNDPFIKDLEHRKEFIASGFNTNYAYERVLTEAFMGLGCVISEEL

[5] = molecular target: T1, Ccl1 (Saccharomyces cerevisiae); assay: anti-FLAG co-IP, LC-MS/MS; pair by Table 2
[6] = molecular target: T2, Kin28 (Saccharomyces cerevisiae); assay: anti-FLAG co-IP, LC-MS/MS; pair by Table 2
[7] = molecular target: T4, TFB3 (Saccharomyces cerevisiae); assay: anti-FLAG co-IP, LC-MS/MS; pair by Table 2

Measured: binding

B1: Rad3 (protein, Saccharomyces cerevisiae, UniProt P06839 1-778, looked up)
chain: MKFYIDDLPVLFPYPKIYPEQYNYMCDIKKTLDVGGNSILEMPSGTGKTVSLLSLTIAYQMHYPEHRKIIYCSRTMSEIEKALVELENLMDYRTKELGYQEDFRGLGLTSRKNLCLHPEVSKERKGTVVDEKCRRMTNGQAKRKLEEDPEANVELCEYHENLYNIEVEDYLPKGVFSFEKLLKYCEEKTLCPYFIVRRMISLCNIIIYSYHYLLDPKIAERVSNEVSKDSIVIFDEAHNIDNVCIESLSLDLTTDALRRATRGANALDERISEVRKVDSQKLQDEYEKLVQGLHSADILTDQEEPFVETPVLPQDLLTEAIPGNIRRAEHFVSFLKRLIEYLKTRMKVLHVISETPKSFLQHLKQLTFIERKPLRFCSERLSLLVRTLEVTEVEDFTALKDIATFATLISTYEEGFLLIIEPYEIENAAVPNPIMRFTCLDASIAIKPVFERFSSVIITSGTISPLDMYPRMLNFKTVLQKSYAMTLAKKSFLPMIITKGSDQVAISSRFEIRNDPSIVRNYGSMLVEFAKITPDGMVVFFPSYLYMESIVSMWQTMGILDEVWKHKLILVETPDAQETSLALETYRKACSNGRGAILLSVARGKVSEGIDFDHQYGRTVLMIGIPFQYTESRILKARLEFMRENYRIRENDFLSFDAMRHAAQCLGRVLRGKDDYGVMVLADRRFSRKRSQLPKWIAQGLSDADLNLSTDMAISNTKQFLRTMAQPTDPKDQEGVSVWSYEDLIKHQNSRKDQGGFIENENKEGEQDEDEDEDIEMQ
binds: [1] | [2] | [3] | [4] | [5] | [6] | [7]

— US20030162221A1
